Assay results from paper PMC10299398.
Results are given in words; binding and its absence hold for the method and conditions named. Binding seen in cells or lysates may run through a third protein. For part of these data: Binding calls can cover weak binding; strength is not graded here.

Protein sequences, listed by entry. Tags and fused reporters are not part of them. Lines headed by an entry give the natural chain unless they say otherwise; changes in a name come on top.
UniProt P10878: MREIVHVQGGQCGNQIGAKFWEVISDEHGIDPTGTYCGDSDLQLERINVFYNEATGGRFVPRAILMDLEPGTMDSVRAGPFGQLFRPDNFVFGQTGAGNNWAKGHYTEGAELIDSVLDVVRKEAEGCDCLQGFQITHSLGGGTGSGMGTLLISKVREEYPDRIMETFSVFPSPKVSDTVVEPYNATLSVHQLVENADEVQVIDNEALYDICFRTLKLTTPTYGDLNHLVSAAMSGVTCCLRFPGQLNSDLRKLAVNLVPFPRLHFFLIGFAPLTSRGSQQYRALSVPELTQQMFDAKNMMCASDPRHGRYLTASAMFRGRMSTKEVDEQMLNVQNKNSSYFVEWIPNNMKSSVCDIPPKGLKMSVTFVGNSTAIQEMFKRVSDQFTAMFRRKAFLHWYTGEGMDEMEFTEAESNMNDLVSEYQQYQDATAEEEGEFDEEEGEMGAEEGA
UniProt S8FA55: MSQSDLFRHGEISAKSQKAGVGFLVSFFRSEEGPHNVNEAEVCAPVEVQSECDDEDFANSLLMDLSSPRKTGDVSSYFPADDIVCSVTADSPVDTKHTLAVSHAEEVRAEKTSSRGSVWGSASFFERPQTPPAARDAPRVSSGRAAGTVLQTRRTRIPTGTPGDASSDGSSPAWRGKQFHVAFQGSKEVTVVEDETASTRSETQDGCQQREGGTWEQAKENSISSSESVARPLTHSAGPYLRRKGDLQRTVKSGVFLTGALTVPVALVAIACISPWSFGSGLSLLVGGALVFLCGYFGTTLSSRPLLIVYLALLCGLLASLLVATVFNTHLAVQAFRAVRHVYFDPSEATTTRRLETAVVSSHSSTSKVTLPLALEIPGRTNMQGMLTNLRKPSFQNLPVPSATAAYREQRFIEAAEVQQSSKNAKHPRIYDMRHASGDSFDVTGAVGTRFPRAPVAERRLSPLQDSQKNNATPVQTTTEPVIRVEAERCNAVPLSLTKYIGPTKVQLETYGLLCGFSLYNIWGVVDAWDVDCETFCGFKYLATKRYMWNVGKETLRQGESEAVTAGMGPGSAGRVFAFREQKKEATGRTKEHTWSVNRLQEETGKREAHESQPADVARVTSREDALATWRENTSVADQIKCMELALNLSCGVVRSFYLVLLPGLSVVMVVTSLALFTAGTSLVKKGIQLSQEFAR
UniProt A0A125YQ79: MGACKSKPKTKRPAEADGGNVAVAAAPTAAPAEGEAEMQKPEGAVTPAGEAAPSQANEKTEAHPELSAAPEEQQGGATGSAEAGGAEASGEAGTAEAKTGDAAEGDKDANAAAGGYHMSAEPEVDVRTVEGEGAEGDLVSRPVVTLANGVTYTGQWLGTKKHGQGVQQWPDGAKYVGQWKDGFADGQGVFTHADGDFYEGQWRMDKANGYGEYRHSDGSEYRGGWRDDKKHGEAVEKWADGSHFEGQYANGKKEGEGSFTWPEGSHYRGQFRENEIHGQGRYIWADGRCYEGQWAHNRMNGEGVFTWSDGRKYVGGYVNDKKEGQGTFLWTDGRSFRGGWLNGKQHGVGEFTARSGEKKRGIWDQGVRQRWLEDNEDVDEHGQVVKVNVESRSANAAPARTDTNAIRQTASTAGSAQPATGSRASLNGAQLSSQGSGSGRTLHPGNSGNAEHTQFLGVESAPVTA

What was measured:
[1] = target: GST-MORN2 (T. gondii); test: pull-down; GST or GST-MORN2 from E. coli BL21 held on glutathione beads, incubated 4 h with lysate of transfected HEK293T cells; blot with anti-Flag; only the target purified
[2] = target: Flag-β-Tubulin (UniProt P10878); test: co-IP; HEK293T cells co-transfected with two plasmids, lysed in RIPA buffer with protease inhibitors; mouse anti-Flag and protein A+G; blots with anti-GFP and anti-Flag
[3] = target: Flag-IMC3 (T. gondii) (UniProt S8FA55); test: as above

Substance | binding [1] | binding [2] | binding [3]
Flag-β-Tubulin (from UniProt P10878 1-449) | binds | – | –
GFP-MORN2 (from UniProt A0A125YQ79) | – | binds | no binding
